Patent US11793849B2, “Method of Chinese herbal medicine extract used for treating multiple diseases caused by drug resistant bacteria infection” (priority 2016, dated 2023)
Some of these results come from one statement about several compounds together. Some compounds share one range, which may span the group rather than tell each member.

Tested on: MDRAB
Assay: Checkerboard assay (combined-use MIC, FIC)
Assay type: cell-based, Acinetobacter baumannii
Conditions: used with the EA
Method: Test methods of the sensibilization effects of the test product to similar antibiotics: it is operated by referring to a checkerboard assay recommended by NCCLS.
The checkerboard assay is performed in a 96-pore sterile culture plate.
Calculation of a Fractional Inhibitory Concentration (FIC): FIC=S20b combined-use MIC/S20b single-use MIC+antibiotic combined-use MIC/antibiotic single-use MIC. By calculating the FIC, the combined antibacterial interaction between the EA and the antibiotic is evaluated, with synergistic effect for FIC≤0.5, additive effect for 0.5<FIC≤1, indifferent effect for 1<FIC≤2 and antagonistic effect for FIC>2. According to a sterile growth pore, the optimum concentration ratio between the EA and the antibiotic is founded out. At last, the effect of the EA to strengthen the efficacy of the antibiotic is evaluated.

Polymycin B [POLB]
usage of the antibiotic reduced compared with the single use: 50%-87%
